The inconclusive results got no clear call from the source; some entries with a clear call stand among them for comparison. For some of these results: A potency beside an inconclusive call is a rough fit, not a confirmed value. Calls of active or inactive are those of the source. Calls come from the whole dose curve; as a rule, active = well fitted curve in the direction sought with a large enough effect; inconclusive = small, poorly fitted or top-dose-only effect, or another doubt; inactive = no such curve, though single readings can be large; an effect the other way counts as inactive or inconclusive.
Tests used:
[1] = Quantitative High-Throughput drug screen in 47 multiple myeloma cell lines against the NCATS MIPE library collection: KMS20_JCRB cell viability assay (AID 1918973); conditions: CellTiter-Glo ATP, 48 h; viability (% of DMSO): at 45.8 µM (top of the series); note: nearly all actives have a fitted effect of over 45% in size; note: potency is the fitted concentration of half-maximal effect
Outline: (§1)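 Viability readout: CellTiter-Glo luminescence following 5 min room-temperature incubation with reagent. Prior exposure: 48 h, 37C, humidified 5% CO2, 500 cells per well.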

[2] = Quantitative High-Throughput drug screen in 47 multiple myeloma cell lines against the NCATS MIPE library collection: MMM1_PLB cell viability assay (AID 1918976); note: potency is the fitted concentration of half-maximal effect; nearly all actives have a fitted effect of over 35% in size
Outline: (§2)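 Viability after 48 h drug exposure was measured as ATP-dependent luminescence. Cells, 500 per well, sat at 37 °C under 5% CO2; DMSO wells set 100%, media-only wells 0%.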

[3] = Quantitative High-Throughput drug screen in 47 multiple myeloma cell lines against the NCATS MIPE library collection: MOLP8_DSMZ cell viability assay (AID 1918977); conditions: MOLP8 myeloma viability, CellTiter-Glo ATP luminescence, 48 h; viability (% of control): at 45.8 µM (top of the series); note: nearly all actives have a fitted effect of over 45% in size; note: potency is the fitted concentration of half-maximal effect
Outline: as §2

[4] = Quantitative High-Throughput drug screen in 47 multiple myeloma cell lines against the NCATS MIPE library collection: OCIMY1_PLB cell viability assay (AID 1918979); conditions: OCI-MY1 myeloma viability, CellTiter-Glo ATP, 48 h; viability: at 45.8 µM (top of the series) unless noted; note: nearly all actives have a fitted effect of over 35% in size; note: potency is the fitted concentration of half-maximal effect
Outline: as §2

[5] = Quantitative High-Throughput drug screen in 47 multiple myeloma cell lines against the NCATS MIPE library collection: MM1S_ATCC cell viability assay (AID 1918980); note: nearly all actives have a fitted effect of over 45% in size; note: potency is the fitted concentration of half-maximal effect
Outline: as §2

[6] = Quantitative High-Throughput drug screen in 47 multiple myeloma cell lines against the NCATS MIPE library collection: MM1R_ATCC cell viability assay (AID 1918981); note: nearly all actives have a fitted effect of over 35% in size
Outline: as §2

[7] = Quantitative High-Throughput drug screen in 47 multiple myeloma cell lines against the NCATS MIPE library collection: LP1_DSMZ cell viability assay (AID 1918982); conditions: LP1 myeloma viability, CellTiter-Glo ATP luminescence, 48 h; viability (% of control): at 45.8 µM (top of the series); note: potency is the fitted concentration of half-maximal effect; nearly all actives have a fitted effect of over 35% in size
Outline: as §2

[8] = Quantitative High-Throughput drug screen in 47 multiple myeloma cell lines against the NCATS MIPE library collection: L363_DSMZ cell viability assay (AID 1918984); conditions: L363 myeloma viability, CellTiter-Glo ATP luminescence, 48 h; viability (% of control): at 45.8 µM (top of the series); note: nearly all actives have a fitted effect of over 40% in size; note: potency is the fitted concentration of half-maximal effect
Outline: as §2

[9] = Quantitative High-Throughput drug screen in 47 multiple myeloma cell lines against the NCATS MIPE library collection: KMS34_JCRB cell viability assay (AID 1918985); conditions: KMS34 myeloma viability, CellTiter-Glo ATP luminescence, 48 h; viability, percent of control: at 45.8 µM (top of the series); note: nearly all actives have a fitted effect of over 40% in size; note: potency is the fitted concentration of half-maximal effect
Outline: as §2

[10] = Quantitative High-Throughput drug screen in 47 multiple myeloma cell lines against the NCATS MIPE library collection: OCIMY7_PLB cell viability assay (AID 1918987); conditions: OCI-MY7 myeloma viability, CellTiter-Glo ATP, 48 h; viability (% of DMSO): at 45.8 µM (top of the series); note: nearly all actives have a fitted effect of over 65% in size; note: potency is the fitted concentration of half-maximal effect
Outline: as §2

[11] = Quantitative High-Throughput drug screen in 47 multiple myeloma cell lines against the NCATS MIPE library collection: OCIMY5_PLB cell viability assay (AID 1918988); conditions: OCI-MY5 myeloma viability, ATP luminescence, 48 h; viability, % of control: at 45.8 µM (top of the series); note: nearly all actives have a fitted effect of over 65% in size; note: potency is the fitted concentration of half-maximal effect;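 for viability, % of control: 100% = DMSO-treated wells and 0% = wells with media alone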
Outline: as §2

[12] = Quantitative High-Throughput drug screen in 47 multiple myeloma cell lines against the NCATS MIPE library collection: SKMM1_PLB cell viability assay (AID 1919863); conditions: SKMM1 myeloma viability, CellTiter-Glo ATP, 48 h; viability: stronger effect = lower value; note: nearly all actives have a fitted effect of over 35% in size; note: potency is the fitted concentration of half-maximal effect
Outline: as §2

[13] = Quantitative High-Throughput drug screen in 47 multiple myeloma cell lines against the NCATS MIPE library collection: U266_ATCC cell viability assay (AID 1919864); conditions: U266 myeloma viability, CellTiter-Glo ATP luminescence, 48 h; viability (% of DMSO control): at 45.8 µM (top of the series)
Outline: as §2

[14] = Quantitative High-Throughput drug screen in 47 multiple myeloma cell lines against the NCATS MIPE library collection: XG6_PLB cell viability assay (AID 1919865); conditions: XG6 myeloma viability, CellTiter-Glo ATP luminescence, 48 h; viability (% of control): at 45.8 µM (top of the series); note: nearly all actives have a fitted effect of over 40% in size; note: potency is the fitted concentration of half-maximal effect
Outline: as §2

[15] = Quantitative High-Throughput drug screen in 47 multiple myeloma cell lines against the NCATS MIPE library collection: XG1_PLB cell viability assay (AID 1919866); conditions: CellTiter-Glo ATP, 48 h; viability: at 45.8 µM (top of the series)
Outline: as §2

[16] = Quantitative High-Throughput drug screen in 47 multiple myeloma cell lines against the NCATS MIPE library collection: KMS21BM_JCRB cell viability assay (AID 1918974); conditions: ATP luminescence, 48 h; viability: at 45.8 µM (top of the series) unless noted; note: potency is the fitted concentration of half-maximal effect
Outline: as §1

[17] = Quantitative High-Throughput drug screen in 47 multiple myeloma cell lines against the NCATS MIPE library collection: KMS26_JCRB cell viability assay (AID 1918975); conditions: KMS26 myeloma cells viability, CellTiter-Glo ATP, 48 h; viability (% of DMSO): at 45.8 µM (top of the series); note: nearly all actives have a fitted effect of over 45% in size; note: potency is the fitted concentration of half-maximal effect
Outline: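 Relative luminescence from CellTiter-Glo served as the viability signal, referenced to DMSO-treated (100%) and cell-free medium (0%) controls. Treatment lasted 48 hours at 37C with 500 cells per well.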

[18] = Quantitative High-Throughput drug screen in 47 multiple myeloma cell lines against the NCATS MIPE library collection: NCIH929_DSMZ cell viability assay (AID 1918978)
Outline: as §2

[19] = Quantitative High-Throughput drug screen in 47 multiple myeloma cell lines against the NCATS MIPE library collection: OPM1_PLB cell viability assay (AID 1918989); note: potency is the fitted concentration of half-maximal effect; nearly all actives have a fitted effect of over 40% in size
Outline: as §2

[20] = Quantitative High-Throughput drug screen in 47 multiple myeloma cell lines against the NCATS MIPE library collection: KMS28PE_JCRB cell viability assay (AID 1918983)
Outline: as §2

C[C@@H](Cc1cc2c(c(C(N)=O)c1)N(CCCO)CC2)NCCOc1ccccc1OCC(F)(F)F
inconclusive: Potency [1] 0.132 µM [rising, full curve, poor fit] | Potency [2] 23.5 µM [cytotoxic, single point] | Potency [4] 0.0033 µM [rising, full curve] | Potency [5] 10.5 µM [cytotoxic, partial curve, poor fit] | Potency [7] 18.7 µM [cytotoxic, partial curve] | Potency [8] 37.2 µM [cytotoxic, single point] | Potency [10] 0.0118 µM [rising, full curve, poor fit] | Potency [11] 37.2 µM [cytotoxic, single point] | Potency [12] 0.001 µM | Potency [13] 0.0059 µM [rising, full curve, poor fit] | Potency [15] 20.9 µM [cytotoxic, single point]
inactive: Potency [3] | Potency [6] | Potency [9] | Potency [14]

CC(C)Oc1ccc(C(=O)N[C@H](CNC(=O)CN(C)C)Cc2ccc(-c3cn4cccc([C@H](C)O)c4n3)cc2)cc1Cl
inconclusive: Potency [16] 33.2 µM [rising, partial curve, poor fit] | Potency [17] 0.132 µM [cytotoxic, full curve, poor fit] | Potency [2] 29.6 µM [cytotoxic, partial curve, poor fit] | Potency [3] 0.0148 µM [cytotoxic, full curve, poor fit] | Potency [18] 5.9 µM [cytotoxic, partial curve] | Potency [7] 2.35 µM [cytotoxic, full curve] | Potency [9] 1.05 µM [cytotoxic, full curve, poor fit] | Potency [19] 0.332 µM [cytotoxic, full curve]
active: Potency [4] 2.64 µM | Potency [8] 0.0833 µM | Potency [10] 0.332 µM

CCOc1ccccc1OCCNC(C)Cc1ccc(OC)c(S(N)(=O)=O)c1 (stereo not given)
inconclusive: Potency [2] 0.0033 µM [rising, full curve, poor fit] | Potency [12] 0.0469 µM [rising, full curve, poor fit]
inactive: Potency [1] | Potency [4] | Potency [5] | Potency [8] | Potency [9] | Potency [10] | Potency [11] | Potency [14]

Nc1ccn([C@@H]2CS[C@H](CO)O2)c(=O)n1
active: viability [16] 155% [at 92.2 µM]
inactive: Potency [8] | Potency [11] | viability [12] 127%
inconclusive: Potency [17] 0.0152 µM [cytotoxic, full curve, poor fit] | Potency [2] 0.0136 µM [rising, full curve] | Potency [4] 0.0241 µM [rising, full curve, poor fit] | Potency [5] 0.0855 µM [rising, full curve] | Potency [7] 0.0021 µM [cytotoxic, full curve, poor fit] | Potency [9] 0.0021 µM [cytotoxic, full curve, poor fit] | Potency [10] 48.1 µM [cytotoxic, partial curve, poor fit] | Potency [13] 4.81 µM [rising, partial curve, poor fit] | Potency [14] 38.2 µM [cytotoxic, partial curve] | Potency [15] 38.2 µM [cytotoxic, partial curve, poor fit]

NS(=O)(=O)c1cc(Cl)c(Cl)c(S(N)(=O)=O)c1
inactive: Potency [17] | Potency [3] | Potency [4] | Potency [5] | Potency [10] | Potency [11]
inconclusive: Potency [16] 0.743 µM [rising, full curve, poor fit] | Potency [8] 0.0118 µM [cytotoxic, full curve, poor fit] | Potency [9] 16.6 µM [cytotoxic, partial curve, poor fit] | Potency [12] 0.001 µM [cytotoxic] | Potency [14] 0.001 µM

Cc1cccc(Nc2nc(N[C@@H]3CCCC[C@H]3N)ncc2C(N)=O)c1
active: Potency [2] 20.9 µM | Potency [7] 18.7 µM | Potency [12] 23.5 µM | Potency [15] 9.35 µM
inconclusive: Potency [16] 3.32 µM [cytotoxic, full curve, poor fit] | Potency [5] 33.2 µM [cytotoxic, single point] | Potency [20] 23.5 µM [cytotoxic, partial curve, poor fit] | Potency [9] 18.7 µM [cytotoxic, partial curve, poor fit] | Potency [13] 33.2 µM [cytotoxic, single point]

From PubChem BioAssay (NCATS)
